{"source": "the supplement of paper PMC3334620", "note": "In all, about 33,000 sequences were measured (“E-score (-0.5 to 0.5)”: median about -8e-05, highest 2% from about 0.23 on). The list shows a part of the results."}
{"target": "T1, Nrg2 (UniProt P38082)", "T1 sequence": "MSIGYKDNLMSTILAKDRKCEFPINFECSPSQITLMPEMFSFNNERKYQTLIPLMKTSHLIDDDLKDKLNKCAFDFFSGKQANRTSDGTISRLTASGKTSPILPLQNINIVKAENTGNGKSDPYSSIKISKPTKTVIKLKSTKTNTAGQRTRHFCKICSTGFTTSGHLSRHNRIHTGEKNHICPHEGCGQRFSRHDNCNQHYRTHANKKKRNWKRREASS", "experiment": "PBM E-score (8-mer binding enrichment) (E-score (-0.5 to 0.5)); higher = stronger / more preferred TF binding", "details": "protein concentration: 100 nM; construct: GST-full length", "procedure": "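Universal 'all 10-mer' protein binding microarrays (Agilent AMADID 015681) probed with GST-tagged S. cerevisiae TFs (full-length or DBD) made by in vitro transcription/translation (PURExpress), about 100-200 nM. Bound TF was detected with fluorescent anti-GST. Each ungapped 8-mer (which stands for itself and its reverse complement) is scored by the PBM enrichment score (E-score), a modified Wilcoxon-Mann-Whitney statistic from -0.5 to +0.5, computed with the Universal PBM Analysis Suite. Scale: above 0.35 generally sequence-specific binding.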"}
{"sequence": "ATACACAA", "PBM E-score": -0.0689}
{"sequence": "GACCAGAC", "PBM E-score": -0.19}
{"sequence": "ACGCGGAG", "PBM E-score": -0.00644}
{"sequence": "CGGTCCCC", "PBM E-score": -0.0264}
{"sequence": "AGGAGATA", "PBM E-score": -0.00147}
{"sequence": "GGGCCGTA", "PBM E-score": -0.0556}
{"sequence": "CGTCTTAG", "PBM E-score": -0.327}
{"sequence": "ATAGCAGG", "PBM E-score": 0.0203}
{"sequence": "CGCTGTAG", "PBM E-score": -0.152}
{"sequence": "AACTCAGG", "PBM E-score": 0.0297}
{"sequence": "CGCCTTGC", "PBM E-score": -0.00451}
{"sequence": "AGGATTTG", "PBM E-score": -0.0317}
{"sequence": "TGACGTAA", "PBM E-score": -0.175}
{"sequence": "AAATTAGG", "PBM E-score": 0.18}
{"sequence": "AGGACTAC", "PBM E-score": -0.266}
{"sequence": "ACCCAGAA", "PBM E-score": 0.128}
{"sequence": "AATAATTC", "PBM E-score": 0.206}
{"sequence": "ATCCCTGC", "PBM E-score": 0.157}
{"sequence": "ATAATGAA", "PBM E-score": 0.199}
{"sequence": "GCCTCTGA", "PBM E-score": -0.0808}
{"sequence": "ATTTAGGA", "PBM E-score": -0.104}
{"sequence": "AAGAGTCC", "PBM E-score": -0.11}
{"sequence": "CAGGCACC", "PBM E-score": -0.275}
{"sequence": "CTCGTCAG", "PBM E-score": 0.126}
{"sequence": "ACATGCCA", "PBM E-score": 0.0366}
{"sequence": "CCGCTCTC", "PBM E-score": -0.0686}
{"sequence": "TCTTGTCA", "PBM E-score": -0.0232}
{"sequence": "GATCACTA", "PBM E-score": 0.0562}
{"sequence": "AACGTCCG", "PBM E-score": -0.0956}
{"sequence": "TAAATTTA", "PBM E-score": 0.165}
{"sequence": "CGATAATA", "PBM E-score": 0.0922}
{"sequence": "AGTCCGCA", "PBM E-score": -0.0783}
{"sequence": "CGTCCGTC", "PBM E-score": -0.246}
{"sequence": "CTTCGTCC", "PBM E-score": -0.114}
{"sequence": "GAGCGGTA", "PBM E-score": -0.0416}
{"sequence": "ACAAAAGA", "PBM E-score": 0.182}
{"sequence": "TAAAGCGA", "PBM E-score": 0.117}
{"sequence": "ATGGGTAC", "PBM E-score": -0.0449}
{"sequence": "CACGATGC", "PBM E-score": -0.101}
{"sequence": "AGTTTAGG", "PBM E-score": -0.288}
{"sequence": "AACCATCT", "PBM E-score": -0.104}
{"sequence": "CCCCTCGC", "PBM E-score": -0.0902}
{"sequence": "AATGCAGA", "PBM E-score": 0.136}
{"sequence": "CGTTCGAA", "PBM E-score": 0.162}
{"sequence": "GCTGATAA", "PBM E-score": 0.0839}
{"sequence": "GGACTACA", "PBM E-score": -0.052}
{"sequence": "CGGAAAAC", "PBM E-score": 0.0191}
{"sequence": "CATAGATC", "PBM E-score": 0.028}
{"sequence": "TGGTGTAA", "PBM E-score": 0.0348}
{"sequence": "AACTAAAA", "PBM E-score": 0.0978}
{"sequence": "AAACTACG", "PBM E-score": 0.0478}
{"sequence": "CACTCCCA", "PBM E-score": -0.091}
{"sequence": "CGCATGAG", "PBM E-score": 0.0315}
{"sequence": "AACGTATA", "PBM E-score": 0.117}
{"sequence": "ATTCGTCG", "PBM E-score": -0.00164}
{"sequence": "ATTACAAT", "PBM E-score": -0.0701}
{"sequence": "ATGGCTGG", "PBM E-score": -0.148}
{"sequence": "ACATCCGT", "PBM E-score": -0.0596}
{"sequence": "CCGGGGTC", "PBM E-score": -0.086}
{"sequence": "ATCAAGGC", "PBM E-score": 0.00281}
{"sequence": "ACGCAACA", "PBM E-score": 0.0741}
{"sequence": "GATCACCA", "PBM E-score": 0.129}
{"sequence": "CTCAGCAC", "PBM E-score": 0.0146}
{"sequence": "CACCAGCA", "PBM E-score": -0.0708}
{"sequence": "AAACGGCC", "PBM E-score": -0.053}
{"sequence": "CCTGGAAA", "PBM E-score": 0.0778}
{"sequence": "CGGGTTGA", "PBM E-score": 0.0125}
{"sequence": "TACGCGTA", "PBM E-score": 0.172}
{"sequence": "GTGGAGAA", "PBM E-score": 0.0301}
{"sequence": "CCTTCGCA", "PBM E-score": -0.181}
{"sequence": "GCTACCTA", "PBM E-score": 0.00394}
{"sequence": "GTTCCCTA", "PBM E-score": -0.155}
{"sequence": "ACTACGAA", "PBM E-score": -0.0864}
{"sequence": "GTGATGCA", "PBM E-score": 0.154}
{"sequence": "ATACAAAT", "PBM E-score": 0.173}
{"sequence": "TAATAGCA", "PBM E-score": 0.0115}
{"sequence": "ATCTTCCG", "PBM E-score": -0.0338}
{"sequence": "ACCGATCT", "PBM E-score": -0.001}
{"sequence": "AAGCATCG", "PBM E-score": -0.00786}
{"sequence": "CGATGAAG", "PBM E-score": -0.0228}
{"sequence": "AGACGAAT", "PBM E-score": 0.0425}
{"sequence": "GCCCCCGA", "PBM E-score": -0.395}
{"sequence": "ATTTCTTA", "PBM E-score": 0.0783}
{"sequence": "ACTGTTGG", "PBM E-score": -0.179}
{"sequence": "AGGGGATA", "PBM E-score": 0.0551}
{"sequence": "CCTTAACA", "PBM E-score": 0.0513}
{"sequence": "AGAGTCTC", "PBM E-score": -0.163}
{"sequence": "CCGCAATC", "PBM E-score": 0.159}
{"sequence": "ATTTAGTG", "PBM E-score": 0.0472}
{"sequence": "AGGTGTAT", "PBM E-score": 0.092}
{"sequence": "CTACTCCC", "PBM E-score": -0.0742}
{"sequence": "ATGATATA", "PBM E-score": -0.00525}
{"sequence": "CTTGGGAC", "PBM E-score": -0.0635}
{"sequence": "CGTAAACG", "PBM E-score": -0.212}
{"sequence": "ACGGTTAC", "PBM E-score": 0.119}
{"sequence": "ATAGCACA", "PBM E-score": 0.132}
{"sequence": "GACCGCCC", "PBM E-score": -0.143}
{"sequence": "AAGTCTGT", "PBM E-score": -0.0411}
{"sequence": "ACCGTTTC", "PBM E-score": -0.0786}
{"sequence": "CTACCGTA", "PBM E-score": -0.153}
{"sequence": "CGGGTTGC", "PBM E-score": -0.00542}
{"sequence": "CCGACAGC", "PBM E-score": -0.189}
{"sequence": "ATACGAAG", "PBM E-score": 0.0208}
{"sequence": "AAATAAAC", "PBM E-score": 0.1}
{"sequence": "CTACTAGA", "PBM E-score": 0.00869}
{"sequence": "CCCTTTAG", "PBM E-score": -0.0907}
{"sequence": "CTAACCAG", "PBM E-score": -0.0116}
{"sequence": "CAAATATG", "PBM E-score": -0.0116}
{"sequence": "ATCTCTCC", "PBM E-score": 0.0215}
{"sequence": "TAATGCAA", "PBM E-score": -0.0601}
{"sequence": "AAGACGAA", "PBM E-score": 0.142}
{"sequence": "AAACAGGA", "PBM E-score": -0.0481}
{"sequence": "GATCAATC", "PBM E-score": -0.127}
{"sequence": "GCCAACGC", "PBM E-score": -0.00531}
{"sequence": "CAGCGCTG", "PBM E-score": -0.0798}
{"sequence": "CCGTAGGA", "PBM E-score": -0.217}
{"sequence": "CGTGGCCA", "PBM E-score": -0.18}
{"sequence": "CCATTTTA", "PBM E-score": 0.159}
{"sequence": "GGAAGGCA", "PBM E-score": -0.1}
{"sequence": "AATGCGCC", "PBM E-score": 0.132}
{"sequence": "ATTTCTCC", "PBM E-score": 0.0443}
{"sequence": "AACTTTCT", "PBM E-score": 0.109}
{"sequence": "ATAGTAGC", "PBM E-score": 0.25}
{"sequence": "CGGATCGC", "PBM E-score": 0.0299}
{"sequence": "GGACGGCA", "PBM E-score": -0.169}
{"sequence": "GTGTGACA", "PBM E-score": -0.162}
{"sequence": "AAGCTGAA", "PBM E-score": 0.00198}
{"sequence": "GGAGCACC", "PBM E-score": 0.00474}
{"sequence": "ATCGAGTG", "PBM E-score": 0.127}
{"sequence": "ACTTGCCG", "PBM E-score": -0.11}
{"sequence": "CTGACAAC", "PBM E-score": 0.0747}
{"sequence": "AGTATGGC", "PBM E-score": 0.00691}
{"sequence": "ATCAGGAC", "PBM E-score": -0.00431}
{"sequence": "AGGTTTCG", "PBM E-score": -0.0228}
{"sequence": "GTCCGCGA", "PBM E-score": -0.0693}
{"sequence": "ATCGCCGC", "PBM E-score": -0.0111}
{"sequence": "AAGGTGCC", "PBM E-score": -0.104}
{"sequence": "ACGGCTTC", "PBM E-score": -0.00831}
{"sequence": "GAGAATGA", "PBM E-score": 0.0708}
{"sequence": "GTTGATAA", "PBM E-score": 0.232}
{"sequence": "GGCCTCCA", "PBM E-score": -0.107}
{"sequence": "CGACCACG", "PBM E-score": -0.0616}
{"sequence": "CTGCAGCC", "PBM E-score": 0.00529}
{"sequence": "CCGTCAAG", "PBM E-score": -0.0837}
{"sequence": "CAACGGGG", "PBM E-score": -0.0389}
{"sequence": "ATCACCAT", "PBM E-score": 0.0544}
{"sequence": "AACAATAA", "PBM E-score": 0.26}
{"sequence": "CTCGCCAC", "PBM E-score": 0.00234}
{"sequence": "CCCAAGGA", "PBM E-score": -0.0867}
{"sequence": "CATTTAAC", "PBM E-score": -0.179}
{"sequence": "ATTCACCG", "PBM E-score": 0.127}
{"sequence": "GTATCGAC", "PBM E-score": 0.123}
{"sequence": "ACCGAATG", "PBM E-score": -0.0349}
{"sequence": "GCAACACA", "PBM E-score": 0.0571}
{"sequence": "AACCATGT", "PBM E-score": 0.00314}
{"sequence": "AGTCTAAC", "PBM E-score": -0.163}
{"sequence": "AAACGCCG", "PBM E-score": 0.0737}
{"sequence": "GAGAGGGC", "PBM E-score": -0.243}
{"sequence": "ACCTCTGA", "PBM E-score": 0.0539}
{"sequence": "CAGTGAAG", "PBM E-score": -0.0253}
{"sequence": "CCCCTGGC", "PBM E-score": 0.11}
{"sequence": "CGAGATGA", "PBM E-score": 0.0537}
{"sequence": "AACCTGGC", "PBM E-score": -0.18}
{"sequence": "ATCTTGGG", "PBM E-score": 0.0749}
{"sequence": "GTCCCAAC", "PBM E-score": 0.0374}
{"sequence": "GACTAATC", "PBM E-score": 0.0266}
{"sequence": "GGTCACAA", "PBM E-score": 0.0577}
{"sequence": "GTAGAGTA", "PBM E-score": -0.0442}
{"sequence": "ACTAATTC", "PBM E-score": 0.0973}
{"sequence": "CAAGGTGC", "PBM E-score": -0.0554}
{"sequence": "GATGCATC", "PBM E-score": 0.191}
{"sequence": "AAAGGCCC", "PBM E-score": -0.0652}
